In patent US20260125426A1, “CYCLIC CELL-PENETRATING PEPTIDES AND USES THEREOF” (Ohio State Innovation Foundation, priority 2022, published 2026):
Some results were stated once for a whole list of compounds, not compound by compound.

System: HeLa cells
Experiment: Flow cytometry of HeLa cells, cytosolic entry of NF-labeled peptides
Format: cell-based
Details: 2 μM NF-labeled peptide, 2 h, 37° C., 1% FBS, relative to CPP12 (100%)
Procedure: Flow cytometry. HeLa cells were cultured in 12-well plates (1.5×10^5 cells/well) overnight. The following day, cells were incubated with 5 μM fluorescently labeled peptide for 2 h in DMEM supplemented with 1% FBS and 1% antibiotic solution. DMSO was used as a negative control. After incubation, cells were detached from plate with 350 μL of 0.25% Trypsin-EDTA solution, diluted with Dulbecco's phosphate buffered saline (DPBS), and pelleted at 300 g for 5 min. Cells were washed twice with DPBS, resuspended in DPBS, and analyzed on a BD FACS LSR II flow cytometer.
To evaluate their cell entry efficiencies, the BCPs and pBCPs were labeled with tetramethylrhodamine (TMR) or naphthofluorescein (NF) on a C-terminal lysine residue (FIGS. 2A, 2B, and 4). […] The labeled peptides were purified again by reversed-phase HPLC and their authenticity was confirmed by high-resolution mass spectrometry.
HeLa cells were treated with 5 μM dye-labeled BCPs (or pBCPs), CPP12, Tat, or DMSO (equal volume) for 2 h at 37° C., washed to remove any peptides in the medium, and analyzed by flow cytometry. The mean fluorescence intensity (MFI) value of TMR (which is pH insensitive) reflects the total amount of CPP inside the HeLa cells (total cellular uptake). On the other hand, NF is a pH sensitive dye, having an apparent pKa of 7.8. NF is unprotonated and fluorescent inside the neutral environment of the cytosol (and nucleus) but is nearly completely protonated and nonfluorescent in the acidic environments of endosomes and lysosomes. Thus, the MFI value of NF provides a convenient estimate of the peptides that have reached the cytosol.
Note that cell entry assays were performed by treating HeLa cell with 2 μM naphthofluorescein (NF)-labeled peptide for 2 h at 37° C. Under this condition, the BCPs enter the cell almost exclusively by endocytosis and endosomal escape. A small fraction of the CPP12^NF-treated cells (˜10%) underwent direct translocation of CPP12^NF; this fraction of highly fluorescent cells was not included in the data analysis. The cellular entry of pBCP427-4 was confirmed by live-cell confocal microscopy (FIG. 6).
BCP16a, BCP16b, and pBCP427-4a were labeled with NF and their cytosolic entry efficiencies were assessed by flow cytometry analysis of HeLa cells after treatment with 2 μM peptide at 37° C. for 2 h. […] CPP12 was previously shown to be highly sensitive to serum proteins (Buyanova, M., et al., (2022). Discovery of a Cyclic Cell-Penetrating Peptide with Improved Endosomal Escape and Cytosolic Delivery Efficiency. Molecular pharmaceuties, 19 (5). 1378-1388).

Row | Substance | MFI^NF (Cytosolic Entry)
1 | Ac-CRRRφCF(dNle)QWC [BCP9A5-2] | 30-43%
2 | Ac-CRRRφRFCQWC [BCP9A5-1] | 30-43%
3 | HS-CH2-CO-rRrRC(Bta)φC [BCP15] | 86-444%
4 | HS-CH2-CO-rRrRCΦφC [BCP14] | 86-444%
